# Experimental data taken from publication doi:10.1101/2025.03.04.641524.
# These are yes or no findings as the source states them, for the method shown. Binding seen in cells or lysates may run through a third protein. Some results given as binding are weak or reduced against the parent protein; the word gives no strength. Where a sequence is shown, tags or fusion partners need not be part of it.
# Target: T1, SpSwi6-5Flag (Schizosaccharomyces pombe) (UniProt P40381)
# T1 sequence: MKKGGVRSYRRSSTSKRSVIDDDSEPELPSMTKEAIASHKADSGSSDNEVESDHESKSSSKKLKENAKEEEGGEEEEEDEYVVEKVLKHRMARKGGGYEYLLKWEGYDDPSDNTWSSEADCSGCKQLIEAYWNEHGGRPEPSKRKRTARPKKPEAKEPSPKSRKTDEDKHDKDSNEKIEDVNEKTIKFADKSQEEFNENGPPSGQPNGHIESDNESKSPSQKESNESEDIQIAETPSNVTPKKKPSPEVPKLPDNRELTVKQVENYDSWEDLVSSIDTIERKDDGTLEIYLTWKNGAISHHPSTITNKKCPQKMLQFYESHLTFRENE
# Assay: co-IP
row,Substance,binding
1,histone H3 di-methylated on lysine 9 (H3K9me2) (from UniProt P61830 1-136),binds
2,histone H3 tri-methylated on lysine 9 (H3K9me3) (from UniProt P61830 1-136),binds
